{"source": "patent US8518958B2", "about": "“Pyrido [2,3-D] pyrimidines and their use as kinase inhibitors” (Forma Therapeutics, Inc., priority 2006, dated 2013)", "tested_on": "Human HT-29 cells colon carcinoma xenograft", "type": "in vivo", "conditions": "all dosages tested (40, 60 and 80 mg/kg)", "note": "Some entries share one result that the patent states for a list of compounds.", "data": [{"smiles": "COn1c(=O)c(-c2c(Cl)cccc2Cl)cc2cnc(Nc3ccc(OCCN(C)C)cc3)nc21", "note": "[Compound 24, 6-(2,6-Dichlorophenyl)-8-methoxy-2-(4-(2-dimethylaminoethoxy)-phenylamino)-pyrido[2,3-d]pyrimidin-7-one]", "values": [{"measurement": "Log Cell Kill (LCK)", "result": "above 0.4"}]}, {"smiles": "COn1c(=O)c(-c2c(Cl)cccc2Cl)cc2cnc(Nc3cccc(S(N)(=O)=O)c3)nc21", "note": "[Compound 4, 6-(2,6-Dichlorophenyl)-8-methoxy-2-(3-sulfamoylphenylamino)-pyrido[2,3-d]pyrimidin-7-one]", "values": [{"measurement": "Log Cell Kill (LCK)", "result": "above 0.4"}]}]}
